According to paper doi:10.1101/2023.01.26.525744:
No constants are given. Whether binding was seen depends on the method and setting. Some binding calls cover weakened binding; strength is not graded here.

The chains behind the UniProt entries cited, without tags or fusion partners. Residues count along the entry.
UniProt P05556, residues 752-798: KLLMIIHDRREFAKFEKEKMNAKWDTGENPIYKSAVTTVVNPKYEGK
UniProt P05106, residues 742-788: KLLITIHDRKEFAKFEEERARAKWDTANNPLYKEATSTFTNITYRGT
UniProt Q96AC1: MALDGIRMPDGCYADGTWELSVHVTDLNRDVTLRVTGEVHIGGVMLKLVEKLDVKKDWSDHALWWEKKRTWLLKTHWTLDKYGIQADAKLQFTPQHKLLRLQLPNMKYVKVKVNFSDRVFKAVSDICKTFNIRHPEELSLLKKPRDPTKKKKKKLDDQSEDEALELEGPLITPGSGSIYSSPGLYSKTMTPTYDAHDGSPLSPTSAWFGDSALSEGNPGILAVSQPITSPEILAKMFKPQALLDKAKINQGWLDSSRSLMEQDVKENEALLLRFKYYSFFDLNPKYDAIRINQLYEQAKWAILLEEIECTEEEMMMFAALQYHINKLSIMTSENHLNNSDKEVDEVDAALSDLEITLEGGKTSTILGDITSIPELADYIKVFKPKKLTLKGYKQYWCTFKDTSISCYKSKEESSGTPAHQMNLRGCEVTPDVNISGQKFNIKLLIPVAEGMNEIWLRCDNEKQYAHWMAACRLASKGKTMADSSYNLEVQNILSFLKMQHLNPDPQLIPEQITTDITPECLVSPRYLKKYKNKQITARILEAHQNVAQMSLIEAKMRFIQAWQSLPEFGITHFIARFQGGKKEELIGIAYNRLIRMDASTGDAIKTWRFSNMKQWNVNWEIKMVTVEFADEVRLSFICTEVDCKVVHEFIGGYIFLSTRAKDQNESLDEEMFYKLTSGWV

What was measured:
[1] = target: Twin-Strep-tag integrin β1 cytoplasmic tail (human) (UniProt P05556); assay: pull-down
[2] = target: Twin-Strep-tag integrin β3 cytoplasmic tail (not stated (human or mouse cDNA cloned)) (UniProt P05106); assay: pull-down

binding [1]: binds
binding [2]: binds
Substance: His6SUMO-kindlin2, full length (from UniProt Q96AC1 1-680)
